# In PubChem BioAssay AID1439 (NMMLSC, 2008):
# By UniProt entry, the sequences of proteins in these tests, tags left out.
# UniProt P09471, whole entry, looked up: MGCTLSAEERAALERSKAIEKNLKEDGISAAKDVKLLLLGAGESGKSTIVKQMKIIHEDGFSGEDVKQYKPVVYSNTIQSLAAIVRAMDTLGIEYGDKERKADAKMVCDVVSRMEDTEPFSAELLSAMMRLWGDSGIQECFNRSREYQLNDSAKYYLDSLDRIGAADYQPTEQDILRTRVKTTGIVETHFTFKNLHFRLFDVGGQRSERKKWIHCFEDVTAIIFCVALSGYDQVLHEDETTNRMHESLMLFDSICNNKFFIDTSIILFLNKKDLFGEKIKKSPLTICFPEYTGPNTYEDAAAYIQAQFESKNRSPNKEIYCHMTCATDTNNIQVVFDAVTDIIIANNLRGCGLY
# Screen size: about 220,000 compounds; about 770 (0.35%) were called active. The shares of active, inactive and inconclusive entries below differ from those in the screen. Cut-off read from the data, not from the text of the source: active = binding response below about 49% or above about 150%; inconclusive = no clear call, values can overlap the other calls; inactive = in between.
# Molecular target: Guanine nucleotide-binding protein G(o) subunit alpha (Homo sapiens) (UniProt P09471)
# Assay: RGS7-Galphao binding modulators, primary screen, biochemical, multiplexed bead flow cytometry (AID 1439);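 note: fluorescent Galphao held in activated GDP-AlF4 state binding bead-coupled RGS7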
# Conditions: at 10 µM, actives lie on both sides
row,SMILES,binding response (% of control)
1,Cc1ccc(C)c(NC(=O)c2ccccc2NS(=O)(=O)c2cc([N+](=O)[O-])ccc2C)c1,inactive: 103%
2,CC1(C)C(=O)CC[C@]2(C)C3C(=O)C=C4[C@H]5C[C@@](C)(C(=O)O)CC[C@]5(C)CC[C@]4(C)[C@]3(C)CC[C@@H]12 (stereo not given in full),inconclusive: 101%
3,CCN(C(=O)COC(=O)c1ccc(Br)o1)C1CCCCC1,inactive: 97.6%
4,Cc1cc2nc(CO)[nH]c2cc1C,inconclusive: 99.5%
5,Cc1cc(C)cc(OCC(=O)O/N=C(\N)c2ccccc2Cl)c1,inconclusive: 78%
6,CC(Cc1ccccc1)NC(=S)CN1CCCC1=S (stereo not given),inconclusive: 88.7%
7,Cn1c(SCC(=O)c2ccc3c(c2)OCCO3)nnc1C(F)(F)F,inconclusive: 92%
8,COc1ccc(C2/C=C\CN(C(=O)Oc3ccccc3)CC(=O)N2Cc2ccc(F)cc2)cc1 (stereo not given),inconclusive: 77.2%
9,O=C(CSc1nnc(-c2ccncc2)n1-c1ccc(Cl)cc1)N1CCOCC1,inactive: 132%
10,COC(=O)Nc1nnc(/C=C/c2ccc(OC)cc2)s1,inactive: 96.1%
11,COc1ccc(-n2c(COc3cccc4ccccc34)nnc2SCC(=O)NCc2ccco2)cc1,inactive: 103%
12,O=C(CCl)Nc1ccc(N2CCCCCC2)cc1,inactive: 103%
13,O=C(O)c1cc([N+](=O)[O-])c(NCc2cccnc2)c([N+](=O)[O-])c1,inactive: 102%
14,COc1cc(OC)cc(C(=O)N[C@H](C(=O)Nc2nc(-c3ccc(OC)c(OC)c3)cs2)C(C)C)c1,inconclusive: 90.5%
15,Cc1ccc(OCc2ccc(C(=O)NN)o2)cc1C,inconclusive: 78.8%
16,CCOC(=O)c1c(C)c(C(=O)OCC)n(C)c1C,inconclusive: 122%
17,COc1cc(OC)c2c(C)cc(=O)oc2c1C(CCN1CCOCC1)c1ccc(N(C)C)cc1 (stereo not given),inconclusive: 101%
18,O=C(CSc1ncnc2ccccc12)NCc1ccc2c(c1)OCO2,inconclusive: 96.5%
19,CCN(CC)S(=O)(=O)c1cccc(NC(=O)CCNC(=O)c2ccc([N+](=O)[O-])cc2)c1,inconclusive: 118%
20,COc1ccccc1-c1cn[nH]c1-c1ccc(OCc2ccc(F)cc2)cc1O,inconclusive: 106%
21,O=C(Nc1ccc(OC(F)F)c(Cl)c1)C(c1ccccc1)c1ccccc1,inactive: 98.8%
22,O=S(=O)(c1ccc(S(=O)(=O)N2CCC3(CC2)OCCO3)cc1)N1CCCC1,inconclusive: 118%
23,COc1ccc(-c2c([C@H]3[C@H]4C=CC[C@@H](C)[C@@H]4C(=O)N3Cc3ccccc3)ccc3ccccc23)cc1,inconclusive: 131%

# Reprinted from the listing for reference:
row,SMILES,binding response (% of control)
20,COc1ccccc1-c1cn[nH]c1-c1ccc(OCc2ccc(F)cc2)cc1O,inconclusive: 106%
21,O=C(Nc1ccc(OC(F)F)c(Cl)c1)C(c1ccccc1)c1ccccc1,inactive: 98.8%
22,O=S(=O)(c1ccc(S(=O)(=O)N2CCC3(CC2)OCCO3)cc1)N1CCCC1,inconclusive: 118%
23,COc1ccc(-c2c([C@H]3[C@H]4C=CC[C@@H](C)[C@@H]4C(=O)N3Cc3ccccc3)ccc3ccccc23)cc1,inconclusive: 131%

# (next part)

row,SMILES,binding response (% of control)
1,COC(=O)c1n[nH]n(-c2ccc(F)c(Cl)c2)c1=O,inconclusive: 36.8%
2,CCNC(=O)Nc1cc(OC)c(OC)cc1C(=O)O,inconclusive: 109%
3,C=CCNc1c2c(nc3ncnn13)CC(C)CC2 (stereo not given),inconclusive: 87.4%
4,Cc1ccc(C)c(-n2c(-c3cccnc3)n[nH]c2=S)c1,inconclusive: 117%
5,CNC(=O)CCN(Cc1ccco1)S(=O)(=O)c1ccc(OC)c(OC)c1,inconclusive: 113%
6,O=C(C(Cc1ccccc1)n1cccc1)N1CCCCC1 (stereo not given),inactive: 100%
7,Cc1cc(N2CCN(c3ccccc3)CC2)nc(-c2ccccc2O)n1,inactive: 83.6%
8,COc1ccc(NC(=O)N[C@@H](CCSC)C(=O)O)cc1OC,inconclusive: 33.9%
9,COc1ccc(N2CCN(C(=O)c3ccccc3F)CC2)c([N+](=O)[O-])c1,inconclusive: 90.5%
10,CCOc1ccc(-c2nc(CN3CCCCC3CCn3cccn3)c(C)o2)cc1 (stereo not given),inconclusive: 23.9%
11,Cc1ccc(NC(=O)Cn2ccc([N+](=O)[O-])n2)cc1Cl,inactive: 101%
12,COCCNC(=O)c1c(C)cc(C)cc1C,inconclusive: 103%
13,CCn1c(C)cc(/C=C2\SC(=O)N(CC(=O)Nc3ccc(C)c(C)c3)C2=O)c1C,active: -27.5%
14,CCOc1ccccc1OCC(=O)Nc1nnc(C)s1,inactive: 131%
15,O=C1C(Cl)=C(N2CCC(C(=O)O)CC2)C(=O)c2ccccc21,inconclusive: 137%
16,CSc1ncccc1C(=O)OCc1ccc([N+](=O)[O-])cc1,inconclusive: 87.1%
17,CCN(CC)CCCN1C=C2C(=O)C(C)(OC(=O)C3CCCC3)C(=O)C=C2C=C1c1ccsc1 (stereo not given),inconclusive: 34.1%
18,COc1cccc(NC(=O)Nc2ccc(Cc3ccncc3)cc2)c1,inactive: 103%
19,CCCN(CCC)C(=O)NC1CC(=O)N(c2ccc(OC)cc2)C1 (stereo not given),inactive: 105%
20,CN(Cc1cn(C)nc1-c1cccc(Cl)c1)Cc1nccn1C,inconclusive: 93.5%
21,CCc1ccc(CN(C)C(=O)CCc2nnc(COc3ccccc3)o2)cc1,inactive: 101%
22,CC(C)c1cccc(C(C)C)c1NC(=O)CCl,inconclusive: 106%
23,COc1cc(C(CCN2CCCCC2)c2c(OC)cc(OC)c3c(-c4ccccc4)cc(=O)oc23)cc(OC)c1OC (stereo not given),inconclusive: 101%

row,SMILES,binding response (% of control)
1,Cc1c(/C=N/Nc2ccc(C(=O)O)cc2)c2ccccc2n1C,inconclusive: 87.8%
2,CCN(CC)S(=O)(=O)c1cc(Cl)ccc1OC,inactive: 101%
3,O=C(c1ccccc1/S(=N/S(=O)(=O)c1ccccc1)N1CCOCC1)N1CCOCC1 (stereo not given),inactive: 98.8%
4,N#CCCN(Cc1cccs1)C(=O)Nc1ccccc1,inconclusive: 70%
5,O=C1COc2ccc(C(=O)CSc3ccccc3C(=O)O)cc2N1,inconclusive: 131%
6,Cc1ccc(N=CC2=C(O)CC(c3ccco3)CC2=O)cc1 (stereo not given),inactive: 94.5%
7,O=c1nc(N/N=C/C=C/c2ccccc2)cn[nH]1,inconclusive: 84%
8,Cc1nn2c(NCc3ccccn3)cc(C(C)C)nc2c1-c1ccccc1,inconclusive: 204%
9,CCOC(=O)C1CCCN(c2c(N3CCN(c4cccc(Cl)c4)CC3)c(=O)c2=O)C1 (stereo not given),active: 18.3%
10,CC(Oc1ccc2oc(-c3ccccc3)c(C(=O)O)c2c1)C(=O)O (stereo not given),inactive: 90.8%
11,O=c1cc(O)c(-c2ccc(Cl)cc2)c(Cl)[nH]1,inconclusive: 102%
12,COc1ccccc1OCc1ccc(C(=O)NN)o1,inconclusive: 154%
13,COc1ccc(CNC(=O)c2cc(SC)ccc2Cl)cc1OC,inconclusive: 117%
14,Cc1cc(C(=O)COc2ccccc2C(N)=O)c(C)n1C,inconclusive: 117%
15,O=C1Nc2ccccc2/C1=N/N=C/c1cccc(O)c1,inconclusive: 92.2%
16,O=C(O)CCCNC(=O)Cc1ccccc1,inconclusive: 107%
17,CN(C)c1cc[n+](/C(C(=S)Nc2ccc(SC(F)F)cc2)=C(/[O-])c2ccccc2)cc1,inconclusive: 96.2%
18,O=C(Nc1cccc(Cl)c1N1CCOCC1)c1ccc([N+](=O)[O-])o1,inconclusive: 91.5%
19,CC(C)CNC(=O)c1cccc(NC(=O)C(C)Oc2ccccc2)c1 (stereo not given),inactive: 101%
20,CCOC(=O)c1cn[nH]c1NC(=S)Nc1ccc(OC)cc1,inconclusive: -98.3%
21,COc1ccc(NC(=O)C(Cc2ccccc2)n2cccc2)cc1OC (stereo not given),inconclusive: 104%
22,CC(CNC(=O)CCc1nnc(CCC2CCCCC2)o1)c1ccccc1 (stereo not given),inactive: 104%
23,COc1ccc(/C=N/Nc2cc(C)nc(N3CCOCC3)n2)c(OC)c1,inconclusive: 87.9%

row,SMILES,binding response (% of control)
1,CN1C(=O)/C(=C\C(=O)c2cccs2)c2ccccc21,inconclusive: 86.3%
2,Cc1ccc2cc(CN(c3ccccc3)S(=O)(=O)c3ccccc3)c(=O)[nH]c2c1,inconclusive: 145%
3,O=c1[nH]c(-[n+]2ccccc2)c(/C=N/NC([S-])=Nc2ccccc2)s1,inconclusive: 113%
4,Cc1ccc(C(=O)N/C(=C\c2ccc(-c3ccc(Br)cc3)o2)C(=O)NCCCN(C)C)cc1,inconclusive: 95%
5,N=C1c2ccccc2CN1c1ccc(S(=O)(=O)N2CCCCC2)cc1,inactive: 97.2%
6,CCOC(=O)c1c(CSC(=N)N)n(C)c2cc(Br)c(OC(C)=O)cc12,inconclusive: 162%
7,Fc1ccc(N2CCN(Cc3cnc(N4CCOCC4)s3)CC2)cc1,inconclusive: 87.5%
8,Cc1ccc(C(=O)c2ccccc2C(=O)OCC(=O)NC(C)(C)C)cc1,inconclusive: 116%
9,COc1ccc(NC(=O)CSc2ccccn2)c([N+](=O)[O-])c1,inconclusive: 118%
10,CCCC(=O)Nc1ccc2c(c1)nc(CCN1CCCCC1)n2C,inconclusive: 38.6%
11,CN(Cc1cn(C)nc1-c1ccc(Oc2ccccc2)cc1)C1CCOC1 (stereo not given),inconclusive: 132%
12,COc1ccccc1N1CCN(C(=O)/C=C/c2cccc([N+](=O)[O-])c2)CC1,inconclusive: 101%
13,CS(=O)(=O)N1CCc2cc(S(=O)(=O)NCCNS(=O)(=O)c3ccc4c(c3)CCN4S(C)(=O)=O)ccc21,inactive: 103%
14,COc1cc(Nc2ncnc(N)n2)cc(OC)c1OC,inconclusive: 97.3%
15,NC(=O)NC(=O)COC(=O)c1ccc2c(c1)C(=O)N(Cc1ccccc1)C2=O,inconclusive: 102%
16,O=C1COc2ccc(C(=O)CSc3nnc(NCc4ccccc4)s3)cc2N1,inconclusive: 102%
17,C=CCNS(=O)(=O)c1cc(S(=O)(=O)NCC=C)c(OC)cc1OC,inconclusive: 104%
18,O=C(CS(=O)Cc1ccccc1Cl)Nc1ccccc1Cl (stereo not given),inactive: 100%
19,COc1ccc(/C=N/Nc2cc(C)nc(N3CCOCC3)n2)cc1OC,inconclusive: 98.3%
20,Cc1ccccc1NC(=S)NNC(=O)c1cccc(Br)c1,inconclusive: 88.4%
21,O=C(CN1C(=O)c2ccccc2C1=O)OCC(=O)N1CCc2ccccc2C1,inactive: 96.1%

# Two of the compounds above, bar-delimited.
row | SMILES | binding response (% of control)
5 | N=C1c2ccccc2CN1c1ccc(S(=O)(=O)N2CCCCC2)cc1 | inactive: 97.2%
6 | CCOC(=O)c1c(CSC(=N)N)n(C)c2cc(Br)c(OC(C)=O)cc12 | inconclusive: 162%
